Some of the results follow. The main result of the screen is listed elsewhere. These columns were measured beside it and carry no call. The list favours compounds with an active or inconclusive main result. Potencies come from curve fits of mixed quality, noted in brackets.
Experiment: qHTS Assay for Lipid Storage Modulators in Drosophila S3 Cells;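 as to cell number change: cells counted by Cell Tracker Red CMTPX staining in the red channel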
Conditions: BODIPY lipid droplet fluorescence, 18-24 h; for cell number change: measured here: cell count max response, cells fed with added oleic acid
How it was run: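 Drosophila S3 cells loaded with oleic acid (400 uM, as added) and compounds at several concentrations; lipid droplets imaged by 488-nm laser-scanning cytometry, 500–530 nm intensity and object ratio to cell channel. Percent activity normalized to 20 uM Triacsin C.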

[1] = measured here: lipid fluorescence (Fed channel) AC50, cells fed with added oleic acid
[2] = measured here: cell number channel AC50, cells fed with added oleic acid

SMILES | cell number change | AC50 [1] | AC50 [2]
Cc1onc(-c2c(F)cccc2Cl)c1C(=O)OCc1nnc(-c2ccccc2)o1 | 12.6% |  | 
Fc1ccc(CSc2ncnc3nc[nH]c23)cc1 |  | 0.58 µM [falling, single point] | 
N#CC1=C(N)Oc2n[nH]c(-c3ccccc3)c2C12C(=O)Nc1ccccc12 (stereo not drawn) | 1.28% | 29.1 µM [rising, single point] | 
Cc1c(C(=O)Nc2nonc2-c2ccc(F)cc2)oc2ccc(F)cc12 | 21.5% | 0.517 µM [falling, full curve] | 
Cc1cc(NC(=O)CSc2nc3sc4c(c3c(=O)n2C)CCCC4)no1 | 0.315% |  | 
OCC[C@@H]1C[C@@H](O)[C@H](O)[C@@]2(OCCc3ccccc32)O1 | 9.88% | 29.1 µM [rising, single point] | 
COc1ccc(CNC(=O)c2ccc[nH]2)cc1 | -12.7% | 16.4 µM [falling, single point] | 
O=C1C2CC=C(Cl)CC2C(=O)N1CC1Cc2ccccc2CO1 (stereo not drawn) | 2.24% | 6.51 µM [falling, single point] | 
O=C(NCCc1ccccc1)C(=O)NCC1CCCN1S(=O)(=O)c1cccs1 (stereo not drawn) | 24.9% |  | 
COc1cc(C)ccc1Oc1nc(-c2ccccc2O)nc2ccccc12 | 25.1% | 0.411 µM [rising, full curve, poor fit] | 1.03 µM [rising, full curve, poor fit]
COc1ccc(OC)c(-c2nc(C(=O)NCCCN3CCOCC3)cc3c2[nH]c2ccccc23)c1 | 7.08% | 16.4 µM [falling, single point] | 
COc1cc(C(=O)Nc2ccn(C)n2)ccc1OC(F)F | 38.6% | 11.6 µM [rising, single point] | 16.4 µM [rising, single point]
O=C(NCc1ccccc1)c1ccc(S(=O)(=O)N2CCCC2)cc1 | 12.7% | 3.66 µM [falling, partial curve] | 
CN(CCCC(=O)Nc1ccc(OC(F)F)cc1)S(=O)(=O)c1ccc(F)cc1 | -15.8% | 29.1 µM [falling, single point] | 
CCOc1ccc(CNS(=O)(=O)c2cc(CN3C(=O)c4cccnc4C3=O)ccc2OC)cc1 | -19.2% | 6.51 µM [rising, single point] | 
COc1ccc(-c2cn3ccccc3n2)cc1OC | -34.4% |  | 23.1 µM [falling, partial curve]
CCN(CC(=O)Nc1c(F)cccc1F)C(=O)CCN1C(=O)C2CCCCC2C1=O (stereo not drawn) | -0.803% |  | 
COc1ccc(C(=O)OCC(=O)NCC2CCCCC2)cc1S(=O)(=O)N1CCCc2ccccc21 | 50.8% | 6.51 µM [rising, single point] | 11.6 µM [rising, partial curve]
Cc1ccc(NC(=O)[C@H](C)NC(=O)C2CCN(C(=O)[C@H](CC(C)C)NC(=O)OC(C)(C)C)CC2)cc1 | 37.5% |  | 14.6 µM [rising, partial curve]
CC(C)(C)c1cc(=O)n2c(C#N)c(C#N)nc2[nH]1 | -14.6% | 2.59 µM [falling, full curve, poor fit] | 

SMILES | cell number change | AC50 [1] | AC50 [2]
Cc1ccccc1-c1nc2c(s1)CCc1onc(-c3ccc(Cl)cc3)c1-2 | -38.6% | 29.1 µM [falling, partial curve, poor fit] | 29.1 µM [falling, single point]
Cc1noc(C)c1COc1ccc(C(=O)OCC(=O)Nc2ccc(S(N)(=O)=O)cc2)cc1 | -59.3% | 2.31 µM [falling, full curve] | 2.59 µM [falling, full curve]
Cc1nnc2sc(SCc3cccc(Cl)c3)nn2c1=O |  |  | 2.59 µM [rising, single point]
Cc1c(C(=O)N/N=C/c2ccc(-c3ccccc3[N+](=O)[O-])o2)sc(N)c1C#N | -35.1% | 6.51 µM [rising, single point] | 13 µM [falling, partial curve, poor fit]
Cc1nnc(SCCn2c(N3CCN(C)CC3)nc3c2c(=O)[nH]c(=O)n3C)s1 | -10.2% | 20.6 µM [rising, single point] | 
CC(C(=O)Nc1nc2ccccc2[nH]1)N1C(=O)C2CC=CCC2C1=O (stereo not drawn) | -12.7% | 2.91 µM [rising, partial curve] | 
CCC(C)C(NC(=O)c1ccc(Cl)cc1)C(=O)Nc1cccnc1 (stereo not drawn) | 75.9% |  | 20.6 µM [rising, single point]
CCN(CC)CCn1c2c(c(SCC(=O)Nc3cccc4ccccc34)nc1=O)CCC2 | -25% |  | 3.26 µM [falling, single point]
CCOC(=O)N1CCN(C(=O)CCCn2c(=S)[nH]c3ccccc3c2=O)CC1 | -41.3% | 20.6 µM [falling, partial curve] | 5.8 µM [falling, full curve]
CSc1ccccc1OCc1cc(C(=O)NC2CCc3ccccc32)no1 (stereo not drawn) | 11.5% | 6.51 µM [rising, single point] | 
CCCCOC(=O)CSc1nc(N)c(C#N)c(-c2ccc(OC)cc2)c1C#N | 1.64% | 29.1 µM [rising, single point] | 
O=C(Cn1cc(Cl)ccc1=O)c1ccc(Cl)cc1 | -2.27% |  | 
COc1nc(N(C)C)nc(N(OC)S(=O)(=O)c2ccccc2Cl)n1 | -9.74% |  | 
O=C(COC(=O)Cc1c(F)cccc1Cl)NC(=O)c1ccccc1 |  | 14.6 µM [falling, partial curve] | 
COc1ccc(C2=NOC(C(=O)NCCN3CCOCC3)C2)cc1 (stereo not drawn) | 12.6% |  | 
COc1ccc(CSc2nnnn2C)cc1F | -12.6% | 18.4 µM [falling, single point] | 
CCCC(=O)NC(c1ccc(OC)cc1)c1ccc2cccnc2c1O (stereo not drawn) | -31.6% |  | 
CN(C)CCCNC(=O)C(=O)Nc1ccc2c(c1)N(S(=O)(=O)c1cccs1)CCC2 | 92.9% |  | 29.1 µM [rising, single point]
CCOc1ccc(Cl)cc1S(=O)(=O)N1CCC(C(=O)NCc2ccco2)CC1 | 5.04% | 18.4 µM [rising, single point] | 
O=C(CSC(=S)N1CCCC1)N(Cc1nnc(-c2ccccc2Cl)o1)C1CC1 | -15.3% |  | 

Single records, as listed above:
`CCN(CC)CCn1c2c(c(SCC(=O)Nc3cccc4ccccc34)nc1=O)CCC2` as listed: cell number change: -25%; AC50 [2]: 3.26 µM [falling, single point]
`Cc1nnc2sc(SCc3cccc(Cl)c3)nn2c1=O` as listed: AC50 [2]: 2.59 µM [rising, single point]
`COc1nc(N(C)C)nc(N(OC)S(=O)(=O)c2ccccc2Cl)n1` as listed: cell number change: -9.74%
`CCOc1ccc(Cl)cc1S(=O)(=O)N1CCC(C(=O)NCc2ccco2)CC1` as listed: cell number change: 5.04%; AC50 [1]: 18.4 µM [rising, single point]

(next part)

SMILES | cell number change | AC50 [1] | AC50 [2]
COc1ccccc1CCNS(=O)(=O)c1cn(C)c(=O)n(C)c1=O | -29.4% | 14.6 µM [falling, partial curve] | 
Cc1ccc(CCC(=O)Nc2ccc(Cl)cc2)o1 | -3.81% | 0.651 µM [rising, single point] | 
Cc1c2ccccc2nc2c(F)c(NC(C)C)c(F)c(F)c12 |  | 23.1 µM [falling, partial curve] | 
CC(OC(=O)/C=C/c1ccccc1)C(=O)Nc1ccc2c(c1)OCCO2 (stereo not drawn) | -27.1% | 16.4 µM [falling, single point] | 
Cc1c(NC(=O)OCc2ccccc2)c(=O)n(-c2ccccc2)n1C | -25% | 0.82 µM [falling, full curve, poor fit] | 0.146 µM [falling, full curve, poor fit]
COc1ccc(C(CC(=O)c2ccc(C)cc2)Nc2ccc([N+](=O)[O-])cc2)cc1 (stereo not drawn) | 14.8% | 0.00517 µM [rising, full curve, poor fit] | 
COc1cc([N+](=O)[O-])ccc1-c1ccc(/C=N\n2cnnc2)o1 | 62.7% |  | 25.9 µM [rising, single point]
CCOC(=O)C1CCN(C(=O)c2ccc3c(c2)S(=O)(=O)c2ccccc2C3=O)CC1 | 10.3% | 0.116 µM [rising, single point] | 6.51 µM [rising, single point]
COc1ccc(-c2cc(=O)oc3cc(OCC(=O)N4CCOCC4)ccc23)cc1 | 11.8% |  | 
CN(Cc1nccs1)C(=O)c1ccc2nc(Cc3ccccc3F)oc2c1 | -7.03% |  | 
COCCCNCCCCSc1ccc(Cl)cc1 | -68.3% | 0.184 µM [falling, full curve, poor fit] | 32.6 µM [falling, single point]
N#C/C=C/N1CCN(C(=O)c2ccco2)CC1 | -29.4% | 0.0146 µM [falling, full curve, poor fit] | 
CCCCn1c(N)c(NCCC)c(=O)[nH]c1=O | -6.68% | 13 µM [rising, single point] | 1.64 µM [falling, single point]
CCC(C)(NC(=O)c1cccc(N2C(=O)CSC2c2ccccc2)c1)C(=O)Nc1ccccc1C (stereo not drawn) | 8.37% |  | 
O=C(NNC(=O)c1ccc(Br)o1)c1csc(N2CCOCC2)n1 | -38.4% | 1.64 µM [falling, full curve] | 1.84 µM [falling, full curve, poor fit]
Cn1nnc2c(C(N)=O)ncn2c1=O | 44.8% | 29.1 µM [rising, single point] | 29.1 µM [rising, single point]
COc1ccc(/C=C/C(=O)N[C@@H](C)C(=O)O)cc1 | -17% | 0.461 µM [falling, full curve] | 
Cc1cc(Cl)ccc1OCC(=O)NCCOc1nc(N2CCOCC2)nc(N2CCOCC2)n1 | -32.6% |  | 29.1 µM [falling, single point]
O=C(Nc1ccc(-c2cccc(F)c2)cc1)C1CCCN(Cc2ccccn2)C1 (stereo not drawn) | -17.8% | 29.1 µM [falling, single point] | 0.058 µM [rising, single point]
COc1ccc(CNC(=O)CN(Cc2ccccc2)C(=O)CCC(=O)Nc2ccccn2)cc1 | 14.8% | 6.51 µM [rising, single point] | 

Source: PubChem BioAssay AID2685 (National Center for Advancing Translational Sciences (NCATS), 2010)
